# Results from one PubChem assay

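Luminescence from an EWS-FLI1 target-promoter (NR0B1) reporter, set against a CMV-promoter reporter, two days after silencing single genes in TC32 Ewing sarcoma cells.
Each siRNA was applied at 20 nM.
A z-score of the log NR0B1-over-CMV signal, less the median of siRNAs with the same seed; more negative means a stronger specific loss of the NR0B1 reporter.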

This is part of the screen; most of the strongest results are not listed here.
Sequences are the guide (antisense) strand, without overhang.

| strand | gene | seed-corrected z-score |
|---|---|---|
| `AAGGUUCUCGGCGACAUGC` | GJC3 | -0.2417 |
| `AAAUGAGCCUCAUACAUCC` | CNTNAP4 | -0.6629 |
| `AAUUCAGUUCUGUUGCUGC` | PRSS53 | 0.1339 |
| `UAAGAUUUCAGGACCCGAG` | MLC1 | 0.4186 |
| `AAUUGUAACAUUCUCACCC` | FUS | 0.109 |
| `UAUGCAGCUAAUAAGAGCU` | MS4A7 | 1.129 |
| `UUGGGAACUAAUUUGAAGC` | H1FOO | 0.9295 |
| `UGUAUUCCCAAGCUCCUUC` | C16orf97 | -0.3925 |
| `UCAGCUUCCAGAUAUGCAC` | WDR54 | -0.105 |
| `ACACUGGUCACCGUAGAGC` | GCGR | -0.4151 |
| `UCAUAGACCUUGAUGGUUG` | A2ML1 | 0.2595 |
| `UUUGUAGUCGUGUAGAGAG` | JUNB | 1.582 |
| `UGAUCUUUAUAAUCGAAAC` | CYP2C19 | -0.5766 |
| `UAGUGUAAUACUCCACGUG` | B4GALNT2 | 0.4408 |
| `UUGGAAGCAAAUGGUGUGC` | GPR182 | -1.658 |
| `ACACGAAUUACUAAAGUCU` | STPG1 | -0.5547 |
| `UAAGAAGUGGUGGUCAUGC` | SPOCD1 | 0.09377 |
| `UCAUGAACAACGAAGUCGG` | PUS7 | -0.2354 |
| `UUCAUUUGUAUAGAGAUUC` | CSNK1G2 | 0.8909 |
| `ACUCAGAUCUGUCCCUUGC` | TMEM215 | -0.1357 |
| `UGAAAGGUAAGCGCCAUCG` | NAA38 | -0.9685 |
| `AGCAAUUCCAGUAUUAGCC` | SLC38A2 | -1.049 |
| `UUGGUGUUGGGAGAGACGU` | KCNH2 | 0.4793 |
| `UUGGGUGGUACAAAGAACU` | SH2B1 | -0.7304 |
| `AAUACCUCAAGAACAGUCC` | EFCAB11 | 0.7397 |
| `UGAACUAUUAGAAAUAUCA` | LSMEM1 | 0.1653 |
| `UAUCCUUCUAAACUGGUCC` | TDP1 | -0.4323 |
| `UCUAGGAGACGUUCCCACC` | LINC01257 | 0.1972 |
| `UCAUCACCCACAAUGCAGC` | PTGIR | -1.035 |
| `UACAGUACCGCUGUGAUGA` | ITGAX | -0.2092 |
| `UAUACACUUCCGGAAACAC` | TIMM13 | -0.4036 |
| `UUAGGAUUCAUGAGAUUGG` | OR2M2 | -0.6642 |
| `UUAGUUCCAAAAUCGGGCG` | ELMO1 | -0.7647 |
| `UACCAGAUCACCACGUUCU` | ZNF653 | 0.29 |
| `UUUUUGUCAACGUAGCUAG` | TSTD2 | 1.636 |
| `UUCAUGCUUGCGCAAGUCG` | ZNF668 | -0.7686 |
| `UAAGUUCUUCAUAUCUGGG` | KRTAP3-2 | -1.371 |
| `ACCGUGGUAAGCAAACUCC` | RFX6 | -0.95 |
| `UUUUCGAAAAUGACGCAGC` | MOXD1 | 0.3625 |
| `UUCCGUAAGGUUUCGGUGC` | TMEM57 | -0.3625 |
| `UCCUGUAAUUGUUCCAUGC` | COMMD3 | 0.1419 |
| `AUCCAUAAUGCUGAUGUCC` | C7orf31 | 0.5484 |
| `UCCAGAUUAAACUCCUUCU` | SASH3 | 0.757 |
| `UAAUUUCGGACUGUAUCUC` | KIAA0825 | -0.2594 |
| `UAAGAACGCAGUGACAAGG` | SLC22A3 | -0.3707 |
| `UGCGUUCUGAUAUUGCUGC` | CNNM1 | 0.03744 |
| `UUGGUAAAUAGCAGUGAGC` | PRSS37 | 0.5619 |
| `UUGAUUUCUGUAAGUAAGC` | STX19 | -0.2085 |
| `AAAACUAUUAGGUGGUAGC` | DECR1 | -0.4734 |
| `AAACGGUUUCGAUACUCUC` | GNPTAB | -0.6703 |
| `UUACUGAAAAUCUCCCGGG` | RGS12 | 0.06031 |
| `UUGGAGACAUGCUAUCAUC` | VGLL1 | -0.1712 |
| `UCUGGUUCCACAGCAGGUC` | TLCD2 | -1.359 |
| `UUCGAGUUGUGGAUAGUUG` | DNAJC13 | -0.03944 |
| `UUUGGUGACUCUGUAAGCG` | COL5A1 | -0.3402 |
| `UUUUCAGAGAGGUCGCUUG` | LMNTD2 | 0.07303 |
| `UGAAGAGUAAGGUACUUAG` | VSIG4 | 0.8166 |
| `UUCGGGUAAAGGACGUAGC` | HEXA | -0.4818 |
| `UCUUCAUGAAGAUAGAGCC` | LOC728755 | 0.7525 |
| `UCUGUGCCUAUCACAAAGC` | UBAP1L | -0.4185 |
| `UUACUGGUGACACUGUCGG` | RAET1E | 0.5121 |
| `UCUAUACUUUGGUUGAUAC` | ESCO2 | -0.1824 |
| `UCGAAAACAAGCACACUCC` | RRAGA | -0.537 |
| `AAACUUGUAGAGUGCAACG` | STAC2 | 2.217 |
| `AAACAAGUUAUGGCAGUGG` | PNOC | 0.3062 |
| `UCUGUCACAAGAUCUGCAG` | IMPA2 | -0.1948 |
| `UGUUCAUUAGGUUCGAAGC` | SGTA | 0.256 |
| `AACCAUAGAAUUAGCGUGC` | AIMP1 | 0.1611 |
| `UAAGGAUCAUUUCCGAGUC` | GDF10 | 0.7158 |

Once more, the final 6:

strand,gene,seed-corrected z-score
AAACUUGUAGAGUGCAACG,STAC2,2.217
AAACAAGUUAUGGCAGUGG,PNOC,0.3062
UCUGUCACAAGAUCUGCAG,IMPA2,-0.1948
UGUUCAUUAGGUUCGAAGC,SGTA,0.256
AACCAUAGAAUUAGCGUGC,AIMP1,0.1611
UAAGGAUCAUUUCCGAGUC,GDF10,0.7158

From PubChem BioAssay record AID1159506 (NCATS, 2015).